Our source for the binding values is paper doi:10.1101/670034.

Protein sequences, listed by entry. Tags and fused reporters are not part of them.
UniProt Q7Z2H8: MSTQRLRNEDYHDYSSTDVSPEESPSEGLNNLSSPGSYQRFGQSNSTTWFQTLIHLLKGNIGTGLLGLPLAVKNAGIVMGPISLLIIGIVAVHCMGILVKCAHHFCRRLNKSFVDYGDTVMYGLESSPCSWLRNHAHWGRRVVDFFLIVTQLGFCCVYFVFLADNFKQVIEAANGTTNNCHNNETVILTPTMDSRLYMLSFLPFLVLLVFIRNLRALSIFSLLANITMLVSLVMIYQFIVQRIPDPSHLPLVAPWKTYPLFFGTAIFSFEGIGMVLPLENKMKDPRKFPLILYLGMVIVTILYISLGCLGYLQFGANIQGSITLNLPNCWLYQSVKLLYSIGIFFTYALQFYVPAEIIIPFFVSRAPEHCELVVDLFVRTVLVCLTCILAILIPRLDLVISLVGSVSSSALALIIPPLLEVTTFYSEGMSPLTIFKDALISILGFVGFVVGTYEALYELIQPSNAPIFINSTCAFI

Common to all, as to assay: co-IP
The target in experiment [1] is FLAG-tagged PAT1 (also known as LYAAT1 and SLC36A1) (UniProt Q7Z2H8).
In experiment [2] the target is T1, PQLC2-2xHA expressed from the endogenous locus (human (endogenous in HEK293FT)) (UniProt Q6ZP29).
T1 sequence: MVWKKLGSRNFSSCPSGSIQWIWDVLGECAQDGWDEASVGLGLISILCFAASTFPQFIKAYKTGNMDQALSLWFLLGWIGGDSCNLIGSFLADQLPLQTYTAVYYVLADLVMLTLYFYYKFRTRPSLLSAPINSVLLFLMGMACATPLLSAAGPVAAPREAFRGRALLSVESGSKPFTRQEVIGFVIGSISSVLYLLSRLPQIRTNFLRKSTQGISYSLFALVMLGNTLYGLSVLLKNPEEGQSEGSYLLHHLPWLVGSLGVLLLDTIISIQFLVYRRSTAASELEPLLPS

For a further experiment, the target named is T2, PQLC2-FLAG (wild type) (UniProt Q6ZP29).
T2 sequence: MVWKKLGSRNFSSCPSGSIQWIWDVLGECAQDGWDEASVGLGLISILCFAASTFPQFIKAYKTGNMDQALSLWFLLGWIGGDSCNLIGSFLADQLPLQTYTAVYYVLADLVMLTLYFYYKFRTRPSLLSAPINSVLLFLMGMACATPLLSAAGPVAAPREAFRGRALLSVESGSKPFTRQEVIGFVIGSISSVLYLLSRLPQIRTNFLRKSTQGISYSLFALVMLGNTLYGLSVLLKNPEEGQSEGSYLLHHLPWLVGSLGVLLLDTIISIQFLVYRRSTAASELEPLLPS

No constants are given. Whether binding was seen depends on the method and setting. Binding seen in cells or lysates may run through a third protein. Some entries that bind do so weakly or less than the wild type. For some of these results: Where a sequence is shown, tags or fusion partners need not be part of it.

B1: SMCR8 (endogenous) (protein, UniProt Q8TEV9 1-937)
chain: MISAPDVVAFTKEEEYEEEPYNEPALPEEYSVPLFPFASQGANPWSKLSGAKFSRDFILISEFSEQVGPQPLLTIPNDTKVFGTFDLNYFSLRIMSVDYQASFVGHPPGSAYPKLNFVEDSKVVLGDSKEGAFAYVHHLTLYDLEARGFVRPFCMAYISADQHKIMQQFQELSAEFSRASECLKTGNRKAFAGELEKKLKDLDYTRTVLHTETEIQKKANDKGFYSSQAIEKANELASVEKSIIEHQDLLKQIRSYPHRKLKGHDLCPGEMEHIQDQASQASTTSNPDESADTDLYTCRPAYTPKLIKAKSTKCFDKKLKTLEELCDTEYFTQTLAQLSHIEHMFRGDLCYLLTSQIDRALLKQQHITNFLFEDFVEVDDRMVEKQESIPSKPSQDRPPSSSLEECPIPKVLISVGSYKSSVESVLIKMEQELGDEEYKEVEVTELSSFDPQENLDYLDMDMKGSISSGESIEVLGTEKSTSVLSKSDSQASLTVPLSPQVVRSKAVSHRTISEDSIEVLSTCPSEALIPDDFKASYPSAINEEESYPDGNEGAIRFQASISPPELGETEEGSIENTPSQIDSSCCIGKESDGQLVLPSTPAHTHSDEDGVVSSPPQRHRQKDQGFRVDFSVENANPSSRDNSCEGFPAYELDPSHLLASRDISKTSLDNYSDTTSYVSSVASTSSDRIPSAYPAGLSSDRHKKRAGQNALKFIRQYPFAHPAIYSLLSGRTLVVLGEDEAIVRKLVTALAIFVPSYGCYAKPVKHWASSPLHIMDFQKWKLIGLQRVASPAGAGTLHALSRYSRYTSILDLDNKTLRCPLYRGTLVPRLADHRTQIKRGSTYYLHVQSMLTQLCSKAFLYTFCHHLHLPTHDKETEELVASRQMSFLKLTLGLVNEDVRVVQYLAELLKLHYMQESPGTSHPMLRFDYVPSFLYKI
As to B1, the binding result in experiment [1] is listed as “no binding”.

B2: 2xHA-C9orf72 expressed from the endogenous locus (protein, UniProt Q96LT7 1-481)
chain: MSTLCPPPSPAVAKTEIALSGKSPLLAATFAYWDNILGPRVRHIWAPKTEQVLLSDGEITFLANHTLNGEILRNAESGAIDVKFFVLSEKGVIIVSLIFDGNWNGDRSTYGLSIILPQTELSFYLPLHRVCVDRLTHIIRKGRIWMHKERQENVQKIILEGTERMEDQGQSIIPMLTGEVIPVMELLSSMKSHSVPEEIDIADTVLNDDDIGDSCHEGFLLNAISSHLQTCGCSVVVGSSAEKVNKIVRTLCLFLTPAERKCSRLCEAESSFKYESGLFVQGLLKDSTGSFVLPFRQVMYAPYPTTHIDVDVNTVKQMPPCHEHIYNQRRYMRSELTAFWRATSEEDMAQDTIIYTDESFTPDLNIFQDVLHRDTLVKAFLDQVFQLKPGLSLRSTFLAQFLLVLHRKALTLIKYIEDDTQKGKKPFKSLRNLKIDLDLTAEGDLNIIMALAEKIKPGLHSFIFGRPFYTSVQERDVLMTF
For the molecule B2, in experiment [1], the binding entry is on record as “no binding”.

B3: WDR41 (endogenous) (protein, UniProt Q9HAD4 1-459)
chain: MLRWLIGGGREPQGLAEKSPLQTIGEEQTQNPYTELLVLKAHHDIVRFLVQLDDYRFASAGDDGIVVVWNAQTGEKLLELNGHTQKITAIITFPSLESCEEKNQLILTASADRTVIVWDGDTTRQVQRISCFQSTVKCLTVLQRLDVWLSGGNDLCVWNRKLDLLCKTSHLSDTGISALVEIPKNCVVAAVGKELIIFRLVAPTEGSLEWDILEVKRLLDHQDNILSLINVNDLSFVTGSHVGELIIWDALDWTMQAYERNFWDPSPQLDTQQEIKLCQKSNDISIHHFTCDEENVFAAVGRGLYVYSLQMKRVIACQKTAHDSNVLHVARLPNRQLISCSEDGSVRIWELREKQQLAAEPVPTGFFNMWGFGRVSKQASQPVKKQQENATSCSLELIGDLIGHSSSVEMFLYFEDHGLVTCSADHLIILWKNGERESGLRSLRLFQKLEENGDLYLAV
For B3, the binding entry (in experiment [2]; with PQLC2-FLAG (wild type)) was “binds” in each case.
